PubChem BioAssay AID1259425, University of Nebraska Medical Center – 2018
In all, the deposit lists about 14,000 reagents; shown is an unselected part. The numbers tell different reagents against one gene apart. Not all columns of the deposit are shown. The record does not give: the time to read-out.

Test: 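Seek colon cancer weak points whose silencing resembles KSR1 loss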 (primary screen)
Cells: HCT116 human colon cancer cells
Reagents: siRNA pool against human genes, 50 nM siRNA
Measurement: 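mRNA of six signature genes measured together by branched-DNA assay after 50 nM siRNA pool, blank removed, divided by geometric mean of two housekeeping genes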
Reading the numbers: BNIP3L mRNA: higher = more BNIP3L transcript after knockdown; NDRG1 mRNA: higher = more NDRG1 transcript after knockdown; BNIP3 mRNA: higher = more BNIP3 transcript after knockdown; ALDOC mRNA: higher = more ALDOC transcript after knockdown

no.	Gene	reagent no.	BNIP3L mRNA, set 1	NDRG1 mRNA, set 1	BNIP3 mRNA, set 1	ALDOC mRNA, set 1
1	CCR10 (C-C motif chemokine receptor 10)	1	0.225	0.85	0.299	0.0451
2	RRP7A (ribosomal RNA processing 7 homolog A)	1	0.0741	0.0756	0.378	0.0351
3	TRIM23 (tripartite motif containing 23)	1	0.0632	0.125	0.213	0.0152
4	RBM28 (RNA binding motif protein 28)	1	0.157	0.331	0.55	0.0103
5	CRYZ (crystallin zeta)	1	0.159	0.114	0.337	0.0285
6	TMEM50A (transmembrane protein 50A)	1	0.258	0.578	0.695	0.146
7	TSSK1B (testis specific serine kinase 1B)	1	0.0932	0.118	0.365	0.00911
8	CENPK (centromere protein K)	1	0.105	0.45	0.177	0.0247
9	PNPO (pyridoxamine 5'-phosphate oxidase)	1	0.0695	0.249	0.358	0.0216
10	MAPKAPK5 (MAPK activated protein kinase 5)	1	0.104	0.242	0.265	0.00915
11	GLA (galactosidase alpha)	1	0.163	0.125	0.192	0.053
12	TECR (trans-2,3-enoyl-CoA reductase)	1	0.182	0.233	0.293	0.0629
13	PARVG (parvin gamma)	1	0.107	0.171	0.232	0.0278
14	RLBP1 (retinaldehyde binding protein 1)	1	0.0663	0.109	0.227	0.00777
15	DRAP1 (DR1 associated protein 1)	1	0.108	0.28	0.308	0.0186
16	EPC2 (enhancer of polycomb 2)	1	0.206	0.158	0.458	0.0397
17	ABCD3 (ATP binding cassette subfamily D member 3)	1	0.115	0.033	0.202	0.0174
18	GP9 (glycoprotein IX platelet)	1	0.128	0.463	0.313	0.0175
19	EDEM1 (ER degradation enhancing alpha-mannosidase like protein 1)	1	0.0868	0.0949	0.214	0.0199
20	CD226 (CD226 molecule)	1	0.124	0.283	0.313	0.0494
21	PIGN (phosphatidylinositol glycan anchor biosynthesis class N)	1	0.125	0.46	0.631	0.0285
22	RIMBP3 (RIMS binding protein 3)	1	0.179	0.196	0.455	0.0428
23	MAGEA2 (MAGE family member A2)	1	0.0915	0.956	0.273	0.085
24	NDUFB8 (NADH:ubiquinone oxidoreductase subunit B8)	1	0.105	0.365	0.242	0.0228
25	GCFC2 (GC-rich sequence DNA-binding factor 2)	1	0.107	0.894	0.362	0.0739
26	LAMP2 (lysosome associated membrane protein 2)	1	0.088	0.0632	0.311	0.0328

6 entries from above, showing only “BNIP3L mRNA, set 1”:
TECR (trans-2,3-enoyl-CoA reductase)	0.182
PARVG (parvin gamma)	0.107
RLBP1 (retinaldehyde binding protein 1)	0.0663
DRAP1 (DR1 associated protein 1)	0.108
EPC2 (enhancer of polycomb 2)	0.206
ABCD3 (ATP binding cassette subfamily D member 3)	0.115

Further reagents:
no.	Gene	reagent no.	BNIP3L mRNA, set 1	NDRG1 mRNA, set 1	BNIP3 mRNA, set 1	ALDOC mRNA, set 1
27	PSMA2 (proteasome 20S subunit alpha 2)	1	0.129	0.262	0.281	0.012
28	DLG5 (discs large MAGUK scaffold protein 5)	1	0.0921	0.228	0.258	0.0178
29	MYEF2 (myelin expression factor 2)	1	0.0983	0.207	0.4	0.0302
30	SERPINA5 (serpin family A member 5)	1	0.148	0.0961	0.214	0.0639
31	PLA2G15 (phospholipase A2 group XV)	1	0.106	0.201	0.181	0.0385
32	PATJ (PATJ crumbs cell polarity complex component)	1	0.0284	0.14	0.207	0.0161
33	SSR1 (signal sequence receptor subunit 1)	1	0.0599	0.19	0.28	0.031
34	STIM1 (stromal interaction molecule 1)	1	0.104	0.364	0.231	0.0487
35	NECAB2 (N-terminal EF-hand calcium binding protein 2)	1	0.0915	0.223	0.401	0.0301
36	TGIF2 (TGFB induced factor homeobox 2)	1	0.0881	0.0753	0.277	0.0109
37	SLC6A7	1	0.0832	0.0501	0.468	0.0102
38	CYP24A1 (cytochrome P450 family 24 subfamily A member 1)	1	0.0958	0.292	0.283	0.0372
39	CAV2 (caveolin 2)	1	0.149	0.0946	0.286	0.0337
40	GNG4 (G protein subunit gamma 4)	1	0.0919	0.0908	0.363	0.0133
41	MFAP4 (microfibril associated protein 4)	1	0.0958	0.269	0.354	0.0245
42	LTK (leukocyte receptor tyrosine kinase)	1	0.157	0.174	0.254	0.00684
43	PAWR (pro-apoptotic WT1 regulator)	1	0.124	0.145	0.251	0.00605
44	FOLH1B (folate hydrolase 1B (pseudogene))	1	0.132	0.172	0.238	0.0369
45	HLA-DQA2 (major histocompatibility complex, class II, DQ alpha 2)	1	0.219	0.193	0.297	0.0179
46	MEP1B (meprin A subunit beta)	1	0.119	1.27	0.385	0.0433
47	ARMH3 (armadillo like helical domain containing 3)	1	0.199	0.25	0.426	0.0412
48	VAC14 (VAC14 component of PIKFYVE complex)	1	0.412	5.01	1.09	0.0545
49	VAC14 (VAC14 component of PIKFYVE complex)	2	0.109	0.355	0.162	0.00494
50	LGI1 (leucine rich glioma inactivated 1)	1	0.136	0.151	0.469	0.0368
